{
  "sequences": {"note": "The chains behind the UniProt entries cited, without tags or fusion partners.", "UniProt P46940": "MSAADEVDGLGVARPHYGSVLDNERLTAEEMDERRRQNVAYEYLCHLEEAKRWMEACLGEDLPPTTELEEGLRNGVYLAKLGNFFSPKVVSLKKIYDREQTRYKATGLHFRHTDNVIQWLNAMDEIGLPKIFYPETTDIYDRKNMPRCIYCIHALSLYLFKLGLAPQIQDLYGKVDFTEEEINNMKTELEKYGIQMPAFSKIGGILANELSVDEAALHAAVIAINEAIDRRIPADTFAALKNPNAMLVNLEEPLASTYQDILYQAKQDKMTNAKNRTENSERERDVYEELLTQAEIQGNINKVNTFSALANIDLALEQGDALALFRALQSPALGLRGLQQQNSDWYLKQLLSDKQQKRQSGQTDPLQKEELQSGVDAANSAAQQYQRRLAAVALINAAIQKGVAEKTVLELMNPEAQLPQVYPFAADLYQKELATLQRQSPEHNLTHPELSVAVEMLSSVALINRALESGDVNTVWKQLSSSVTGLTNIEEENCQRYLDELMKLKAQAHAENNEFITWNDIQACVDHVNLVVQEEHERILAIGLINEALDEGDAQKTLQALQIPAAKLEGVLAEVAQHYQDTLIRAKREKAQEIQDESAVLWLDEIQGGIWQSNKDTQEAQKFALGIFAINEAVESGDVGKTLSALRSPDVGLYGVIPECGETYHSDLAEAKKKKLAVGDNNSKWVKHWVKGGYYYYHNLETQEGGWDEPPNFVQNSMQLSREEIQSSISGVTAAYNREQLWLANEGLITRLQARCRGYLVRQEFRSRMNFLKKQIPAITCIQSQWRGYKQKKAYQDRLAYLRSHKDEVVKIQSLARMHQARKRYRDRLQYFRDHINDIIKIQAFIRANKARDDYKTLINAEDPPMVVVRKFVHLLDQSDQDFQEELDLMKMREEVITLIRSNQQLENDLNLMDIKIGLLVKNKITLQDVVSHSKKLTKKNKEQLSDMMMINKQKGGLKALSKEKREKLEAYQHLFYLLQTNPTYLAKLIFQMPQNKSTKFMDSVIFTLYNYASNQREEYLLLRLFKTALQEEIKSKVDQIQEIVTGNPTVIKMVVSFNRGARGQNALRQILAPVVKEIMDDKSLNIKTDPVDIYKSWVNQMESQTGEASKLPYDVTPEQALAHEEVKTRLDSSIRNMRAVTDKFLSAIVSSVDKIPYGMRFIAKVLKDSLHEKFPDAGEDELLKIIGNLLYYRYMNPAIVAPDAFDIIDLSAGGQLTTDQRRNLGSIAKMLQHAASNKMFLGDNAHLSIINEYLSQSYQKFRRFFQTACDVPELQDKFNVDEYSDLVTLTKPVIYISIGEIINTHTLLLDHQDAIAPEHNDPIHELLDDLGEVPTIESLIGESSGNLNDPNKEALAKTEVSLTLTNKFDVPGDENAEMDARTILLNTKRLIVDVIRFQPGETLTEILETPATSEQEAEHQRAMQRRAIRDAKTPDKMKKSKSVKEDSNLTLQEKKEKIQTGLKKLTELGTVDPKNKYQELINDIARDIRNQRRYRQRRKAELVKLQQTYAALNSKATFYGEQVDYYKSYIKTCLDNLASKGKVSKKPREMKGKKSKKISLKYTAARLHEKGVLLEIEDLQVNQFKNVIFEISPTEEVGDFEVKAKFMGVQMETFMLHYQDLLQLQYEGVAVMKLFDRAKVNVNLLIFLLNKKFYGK"},
  "source": "paper PMC6996382",
  "biological_target": "T1, p122RhoGTPase‐activating protein (GAP)/deleted in liver cancer‐1 (p122RhoGAP/DLC‐1) (human (endogenous in skin fibroblasts)) (UniProt Q96QB1)",
  "T1 sequence": "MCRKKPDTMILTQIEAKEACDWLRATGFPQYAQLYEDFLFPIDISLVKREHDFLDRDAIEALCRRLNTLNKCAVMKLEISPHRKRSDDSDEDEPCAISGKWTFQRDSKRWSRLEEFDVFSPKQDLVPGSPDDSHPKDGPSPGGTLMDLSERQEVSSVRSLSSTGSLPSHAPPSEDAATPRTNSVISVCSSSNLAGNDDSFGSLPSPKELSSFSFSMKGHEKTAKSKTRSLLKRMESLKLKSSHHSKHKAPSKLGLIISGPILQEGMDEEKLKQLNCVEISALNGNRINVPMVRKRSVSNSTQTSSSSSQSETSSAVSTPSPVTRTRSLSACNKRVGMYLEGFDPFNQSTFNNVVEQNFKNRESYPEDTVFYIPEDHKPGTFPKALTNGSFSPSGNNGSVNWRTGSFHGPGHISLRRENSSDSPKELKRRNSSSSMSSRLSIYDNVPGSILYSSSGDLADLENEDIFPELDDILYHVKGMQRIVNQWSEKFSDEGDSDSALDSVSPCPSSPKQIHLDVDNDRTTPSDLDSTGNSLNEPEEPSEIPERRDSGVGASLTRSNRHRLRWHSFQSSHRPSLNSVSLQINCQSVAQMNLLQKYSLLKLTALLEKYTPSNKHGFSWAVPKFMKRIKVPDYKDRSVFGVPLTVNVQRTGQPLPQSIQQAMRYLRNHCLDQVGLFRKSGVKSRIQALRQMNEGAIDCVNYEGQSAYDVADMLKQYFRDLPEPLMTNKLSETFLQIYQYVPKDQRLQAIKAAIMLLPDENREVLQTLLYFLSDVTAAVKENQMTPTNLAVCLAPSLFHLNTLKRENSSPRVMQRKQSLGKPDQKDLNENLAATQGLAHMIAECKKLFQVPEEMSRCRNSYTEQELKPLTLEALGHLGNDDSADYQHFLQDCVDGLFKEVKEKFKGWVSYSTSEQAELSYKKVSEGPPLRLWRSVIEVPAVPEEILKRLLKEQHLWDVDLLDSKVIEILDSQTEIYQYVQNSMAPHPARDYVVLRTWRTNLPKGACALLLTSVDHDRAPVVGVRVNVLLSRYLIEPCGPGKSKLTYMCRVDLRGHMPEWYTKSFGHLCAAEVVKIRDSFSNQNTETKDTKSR",
  "experiment": "affinity purification with mass spectrometry; immunoprecipitation with an anti‐p122RhoGAP/DLC‐1 mouse monoclonal antibody on Dynabeads G from CSA skin fibroblast lysate; 7.5% SDS‐PAGE, silver staining; bands of 150‐250 kDa analysed by TOF‐MS",
  "note": "No constants are given. Whether binding was seen depends on the method and setting. Binding seen in cells or lysates may run through a third protein. A yes stands for co-enrichment or nearness to the bait. Other partners may have been found.",
  "data": [
    {"substance": "IQ motif‐containing GTPase‐activating protein 1 (IQGAP1) (from UniProt P46940 1-1657)", "values": [
      {"measurement": "binding", "value": "binds"}
    ]}
  ]
}
